Hit rate of the full screen: of about 52,000 sequences, about 210 (0.4%) were called active.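 The calls were made as follows: active = gene whose silencing raises cell survival under the drug, median off-target-corrected z-score across its silencing RNAs 2 or more; inactive = the rest.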 The list shows a part of the results.
Assay: Resistance to Poly (ADP-Ribose) Polymerase inhibitor: Gene Identification via Genome-wide siRNA Screen
Conditions: mouse BRCA2 R2336H ES cells, olaparib, CellTiter-Glo viability; hits give high values
Summary of the method: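 Mouse BRCA2 R2336H ES cells were reverse-transfected with siRNA (20 nM final), treated at 48 h with 500 nM olaparib, and read by CellTiter-Glo after 72 h. Scores: MAD-based z per siRNA, median per gene, seed off-target correction.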

**Q.** With “CGAGCACACUUUUGAAGAATT against 6530402A20” as the sequence, how does the z-score read?
**A.** The z-score was inactive: 1.82.

**Q.** Which z-score does the source give for GGGAACAAAAUAGAAACCATT against Lgi2 here?
**A.** Its z-score is inactive: 0.141.

**Q.** With GCAGAAAAACUAAUGUACATT against Arhgap5 as the sequence, how does the z-score read?
**A.** Its z-score is inactive: -0.393.

**Q.** Which z-score does the source give for GGCUGAGAAAGAAAUUAGGTT against Birc1c here?
**A.** Its z-score is inactive: -0.629.

**Q.** With GCUGGGUCCACAUGAAUCATT against Sucnr1 as the sequence, how does the z-score read?
**A.** Its z-score is inactive: 0.73.

**Q.** Which z-score does the source give for CCCUCUGUAUUGCGUACCUTT against Dusp14 here?
**A.** Its z-score is inactive: 2.34.

**Q.** With GGAGGUGCUUUAUGUCGAUTT against Utx as the sequence, how does the z-score read?
**A.** Its z-score is inactive: -1.84.

**Q.** With “GGAAAGCUUAGGAAUUACUTT against D8Ertd531e” as the sequence, how does the z-score read?
**A.** Its z-score is inactive: -1.49.

**Q.** With “GGCCAUUCUUUGUCACCCATT against 4632413K17Rik” as the sequence, how does the z-score read?
**A.** Its z-score is inactive: 0.212.

**Q.** Which z-score does the source give for GGGACAAAUAAUGAUGUGUTT against Dmbt1 here?
**A.** The z-score was inactive: 0.26.

**Q.** For CCAAAAGAGUUUUACAGGGTT against Lhx9, which z-score is on record?
**A.** Its z-score is inactive: 0.513.

**Q.** Which z-score does the source give for GGACUUUGAUGUUGAAUGUTT against Rapgef1 here?
**A.** Its z-score is inactive: -0.498.

**Q.** Which z-score does the source give for “GCAGGAGAACAAAUCUAAUTT against 6530401L14Rik” here?
**A.** The z-score was inactive: 0.966.

**Q.** For CCUCCUGAUCAGAAAAGAUTT against Oplah, which z-score is on record?
**A.** The z-score was inactive: -1.53.

**Q.** Which z-score does the source give for GCGAUUGAAGUCUCAGGGATT against BC002230 here?
**A.** Its z-score is inactive: -1.32.

**Q.** With GGAGAAACGAAAAGACUCUTT against Brpf1 as the sequence, how does the z-score read?
**A.** Its z-score is inactive: 0.262.

**Q.** With GGAACCUAGGGUUUUCAGCTT against AU019823 as the sequence, how does the z-score read?
**A.** Its z-score is inactive: -0.141.

**Q.** Which z-score does the source give for GCCUUACUGGGUUACUUGUTT against Cdkn2d here?
**A.** The z-score was inactive: 1.37.

**Q.** With CCCGUCAAAUAUGAAUACCTT against Klk6 as the sequence, how does the z-score read?
**A.** The z-score was inactive: -0.16.

**Q.** With CUGUCUUAUGGAGUUGUGATT against Olfr270 as the sequence, how does the z-score read?
**A.** Its z-score is inactive: 0.47.

**Q.** For “GGAAAAAUGACUUUUUGUGTT against 6030490I01Rik”, which z-score is on record?
**A.** Its z-score is inactive: 0.57.

**Q.** With GGUGAAGAUCUGAUAAGAATT against Epb4.1 as the sequence, how does the z-score read?
**A.** Its z-score is inactive: 0.214.

**Q.** With GGCCUAAGGCUGUGAAUGUTT against AI325464 as the sequence, how does the z-score read?
**A.** Its z-score is inactive: 0.022.

**Q.** Which z-score does the source give for CCUGGACAAGCAAGAUCUCTT against V2r4 here?
**A.** Its z-score is inactive: 0.547.

**Q.** With GGCUCAACUGUGUUAAACATT against Tnfrsf4 as the sequence, how does the z-score read?
**A.** The z-score was inactive: 0.801.

**Q.** With GCACAAACACCACUUUUCATT against Asb12 as the sequence, how does the z-score read?
**A.** Its z-score is inactive: -0.327.

**Q.** Which z-score does the source give for GGUGACCUUUACCCUCACATT against Mocs1 here?
**A.** The z-score was inactive: -2.81.

**Q.** For GGCUGUGGAAAGAUGGACUTT against Ugt2b36, which z-score is on record?
**A.** Its z-score is inactive: -1.3.

**Q.** For GGAAUUUCUACUACAUCACTT against Hs6st3, which z-score is on record?
**A.** Its z-score is inactive: 1.87.

**Q.** For GGACCACCACCGUCUAUUUTT against Adora3, which z-score is on record?
**A.** The z-score was inactive: -0.884.

**Q.** Which z-score does the source give for GGAACUGGAGAAGAUGGAGTT against Uncx4.1 here?
**A.** The z-score was inactive: -0.372.

**Q.** For GGACUUAUUCGAUAUAGUATT against Nt5c1b, which z-score is on record?
**A.** The z-score was inactive: 0.34.

**Q.** With GGACUUCCUGAAAGGCGAATT against H2-Q5 as the sequence, how does the z-score read?
**A.** Its z-score is inactive: -0.196.

**Q.** For CGGAUGAUUGUCACCCUGUTT against Mesp1, which z-score is on record?
**A.** Its z-score is inactive: 0.552.

**Q.** For GGACUUAAUAGUCUCUGGGTT against Gemin5, which z-score is on record?
**A.** The z-score was inactive: -1.44.

**Q.** For GCAAGUCGUGAAACUAUAATT against Gas41, which z-score is on record?
**A.** The z-score was inactive: 0.0888.

**Q.** With GCACUGAGCAAGAAUCCUGTT against Bcap37 as the sequence, how does the z-score read?
**A.** Its z-score is inactive: -2.52.

**Q.** Which z-score does the source give for GCAUACAGAUUUACACCUGTT against BC049711 here?
**A.** Its z-score is inactive: 0.355.

**Q.** For GGCUACCAAUGAGACCAAUTT against Snap91, which z-score is on record?
**A.** Its z-score is inactive: 0.519.

**Q.** Which z-score does the source give for “CGCGUCAUUAUGAAAUGUUTT against 2610024A01Rik” here?
**A.** The z-score was inactive: 0.527.

**Q.** With GGAAGGAAGAAAAAAUAGUTT against Acat1 as the sequence, how does the z-score read?
**A.** Its z-score is inactive: -0.146.

**Q.** Which z-score does the source give for CCUAACAUAGUAUAGCCUUTT against AI449175 here?
**A.** Its z-score is inactive: 0.361.

**Q.** For GCGGGACUGACCUCUUAAUTT against Guk1, which z-score is on record?
**A.** Its z-score is inactive: -0.227.

**Q.** For GGCGGCUGAAAGUUUUGCATT against Pklr, which z-score is on record?
**A.** The z-score was inactive: 1.4.

**Q.** For GGAGUAUCGUAAUGCGGACTT against C4, which z-score is on record?
**A.** The z-score was inactive: 0.421.

**Q.** For GCACAAGUACUUCGAGCGCTT against Insm1, which z-score is on record?
**A.** Its z-score is inactive: -0.726.

**Q.** Which z-score does the source give for GGCUAUUACUUUUAAGAACTT against Capn1 here?
**A.** The z-score was inactive: -0.538.

**Q.** With GCUAAAGCCGUACUCUGAGTT against Mark1 as the sequence, how does the z-score read?
**A.** Its z-score is inactive: -0.776.

**Q.** Which z-score does the source give for GUUUGGCUUAGCUGCUUUCTT against Olfr494 here?
**A.** The z-score was inactive: 1.98.

**Q.** For CCACUGGUCCAUCCAAAUCTT against Cyp21a1, which z-score is on record?
**A.** The z-score was inactive: 0.00949.

**Q.** Which z-score does the source give for “GCUCCUACAGAGAAUAAGATT against 1810057B09Rik” here?
**A.** Its z-score is inactive: 1.78.

**Q.** With GCGAACAUCACGUCCGAUGTT against Minpp1 as the sequence, how does the z-score read?
**A.** Its z-score is inactive: 0.287.

**Q.** With “GGACAAAUUGAGAAAGACATT against C130026L21Rik” as the sequence, how does the z-score read?
**A.** The z-score was inactive: -2.63.

**Q.** With GUUACUACAACAGCUACUATT against Krtap16-4 as the sequence, how does the z-score read?
**A.** Its z-score is inactive: -0.26.

**Q.** For GGAGCUUCGGGAGAUGAUUTT against Fdxr, which z-score is on record?
**A.** The z-score was inactive: -2.18.

**Q.** With GGUGUCCUCAAAGACUUUCTT against Pgc as the sequence, how does the z-score read?
**A.** Its z-score is inactive: -0.652.

**Q.** With CGAGCCUGACUUCAAUCCUTT against Bsf3 as the sequence, how does the z-score read?
**A.** The z-score was inactive: 0.374.

**Q.** For “GGGCAAAUGAUAUAAGGAUTT against 2410011G03Rik”, which z-score is on record?
**A.** Its z-score is inactive: -2.2.

**Q.** With “GGUUCAAGGACACUUUCACTT against 0610012G03Rik” as the sequence, how does the z-score read?
**A.** Its z-score is inactive: 0.261.

**Q.** For GGUAUCUAAGUGCUGCACUTT against Baiap2, which z-score is on record?
**A.** Its z-score is inactive: 1.34.

**Q.** For GGCAAAAUCUCAUCAGUCCTT against BC026978, which z-score is on record?
**A.** Its z-score is inactive: 1.52.

**Q.** With GCUUGUUGCAUGCUUAUCUTT against Tiaf2 as the sequence, how does the z-score read?
**A.** Its z-score is inactive: -0.201.

**Q.** With GCCAUAUCCUUCAAGAGACTT against Cstb as the sequence, how does the z-score read?
**A.** The z-score was inactive: 1.62.

**Q.** With “GGAAAUCUGAAGAAUCAAGTT against 2700019D07Rik” as the sequence, how does the z-score read?
**A.** The z-score was inactive: 0.228.

**Q.** With GGACCUAUGCAGCACUAAATT against Ppp1r11 as the sequence, how does the z-score read?
**A.** Its z-score is inactive: 1.06.

**Q.** Which z-score does the source give for CGGACUCCUGACAUUAUAATT against Cd33 here?
**A.** The z-score was inactive: 0.735.

**Q.** For “GGAAAACUUCACUUUCUUCTT against D12Ertd551e”, which z-score is on record?
**A.** Its z-score is inactive: 0.14.
